# Assay results published in PubChem BioAssay AID504834 (National Center for Advancing Translational Sciences (NCATS), 2011).
# The campaign covered roughly 320,000 compounds. About 22,000 (6.9%) were called active. The inconclusive results got no clear call from the source; some entries with a clear call stand among them for comparison. The call rests on the fitted dose curve; in most records, active means well fitted inhibition curve with a large enough effect; inconclusive means small, poorly fitted or top-dose-only effect, or another doubt; inactive means no such curve, though single readings can be large or run the other way. Potencies of inconclusive entries are doubtful fits and often do not repeat.
# Test: Primary qHTS for delayed death inhibitors of the malarial parasite plastid, 96 hour incubation
# Settings: P. falciparum luciferase reporter growth; series mostly up to 28.7 µM; activity change, negative = inhibition: at the top concentration
# In short: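 Delayed-death screen, second-generation endpoint: infected erythrocytes, 2% hematocrit, 0.05% parasitemia final; 96 hours at 37 C, 5% CO2; luciferase detection reagent; luminescence decrease equals reduced growth.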
# On the % scale 0 is the no-effect control and ±100 the full control effect; potency means the concentration at half of the fitted maximal effect.
Structure (SMILES),"activity change, negative = inhibition",Potency
O=C(O)C1CSC(c2ccccc2Cl)N1C(=O)c1ccc(Cl)cc1 (configuration not stated),inactive: -3.14%,
COC(=O)c1cc(S(=O)(=O)N(C)Cc2ccco2)c[nH]1,,"inconclusive: 14.7 µM [inhibitor, partial curve, poor fit]"
CCC(c1nnc(SCC(=O)NCCc2ccc(OC)c(OC)c2)n1Cc1ccccc1)N(C)C (configuration not stated),,"inconclusive: 3.7 µM [inhibitor, single point]"
O=C(NCCCN1CCOCC1)c1ccc(Sc2ccc(Br)cc2)c([N+](=O)[O-])c1,,active: 14.7 µM
NS(=O)(=O)c1cccc(NC(=O)c2cncc(Br)c2)c1,inactive: 43.8%,
C/C(O)=C(/N=O)C(=O)Nc1ccccc1,,active: 11.7 µM
Cc1csc(N/N=C/c2ccc(O)c([N+](=O)[O-])c2)n1,,"inconclusive: 10.4 µM [inhibitor, single point]"
COc1ccc(CN2CCCC(C(=O)c3ccc(Cl)cc3)C2)c(OC)c1 (configuration not stated),,"inconclusive: 11.7 µM [inhibitor, single point]"
CCOc1ccc(/C=N/Nc2cc(C)nc(N3CCOCC3)n2)cc1,inactive: -20.4%,
CCCCCCn1c(-c2cccs2)n[nH]c1=S,inactive: -4.11%,
Cc1ccc(NS(=O)(=O)c2cc(C(=O)Nc3cccc(N(C)S(C)(=O)=O)c3)ccc2C)c(C)c1,,"inconclusive: 18.5 µM [inhibitor, single point]"
CC(=O)N1CCc2cc(S(=O)(=O)CCC(=O)N3CCN(c4ccccc4F)CC3)ccc21,,"inconclusive: 9.28 µM [inhibitor, partial curve, poor fit]"
O=C(CCCCCN1C(=O)C2C3C=CC(C3)C2C1=O)Nc1nccs1 (configuration not stated),,active: 2.33 µM
O=C1NC(=Nc2ccc(Cl)cc2)SC1Cc1cc(Cl)ccc1Cl (configuration not stated),,"inconclusive: 18.5 µM [inhibitor, single point]"
CN(C)S(=O)(=O)c1ccc(NC(=O)Cc2ccc(S(=O)(=O)N3CCOCC3)s2)cc1,,active: 9.28 µM
CN1C(C(=O)NCc2ccccc2)CC2Cn3c(nc4cc5ccccc5cc43)C21 (configuration not stated),,"inconclusive: 10.4 µM [inhibitor, single point]"
Cc1cc2oc(C(=O)NCc3ccccc3)cc(=O)c2cc1C,,"inconclusive: 18.5 µM [inhibitor, single point]"
COc1cc(OC)cc(C(=O)N[C@H](C(=O)NCc2cccs2)C(C)C)c1,inactive: -11.9%,
CCOc1ccc(-c2nc(-c3ccc(OC)c(OC)c3)no2)cc1OCC,inactive: 9.17%,
O=C(Nc1ccc(F)cc1)OCCN1CCN(Cc2ccccc2)CCC1=O,inactive: -4.33%,
CCCc1cc(CN(C)C(=O)CC2C(=O)NCCN2Cc2ccccc2C)[nH]n1 (configuration not stated),inactive: -19.7%,
CCCC(O)(CCC)C(=O)NN(C(=O)CCl)c1cccc(C)c1,,active: 1.04 µM
Cc1ccc2c(c1)C(=O)C(=O)N2CC(=O)Nc1ccc(N2CCOCC2)cc1,,"inconclusive: 1.85 µM [inhibitor, full curve, poor fit]"
COc1cc(/C=N/NC(=O)C(=O)NCc2cccnc2)ccc1O,,"inconclusive: 11.7 µM [inhibitor, partial curve, poor fit]"

# Part of the list above, with tabs:
Structure (SMILES)	activity change, negative = inhibition	Potency
Cc1cc2oc(C(=O)NCc3ccccc3)cc(=O)c2cc1C		inconclusive: 18.5 µM [inhibitor, single point]
COc1cc(OC)cc(C(=O)N[C@H](C(=O)NCc2cccs2)C(C)C)c1	inactive: -11.9%	

# Next part.

Structure (SMILES),"activity change, negative = inhibition",Potency
CC(C)N1CCC2(CC1)N=C(c1ccc3c(c1)OCO3)CC(c1cc(Cl)ccc1O)N2 (configuration not stated),,"inconclusive: 10.4 µM [inhibitor, partial curve]"
C=CCOc1cccc(NC(=O)c2ccccc2SC)c1,inactive: 19.9%,
CCOC(=O)c1c(NC(=S)Nc2ccc(Cl)cc2)sc2c1CCN(C)C2,,"inconclusive: 4.15 µM [inhibitor, single point]"
COc1ccccc1NC(=O)c1ccc(NC(=O)c2cc3c(s2)CCC3)cc1,,"inconclusive: 18.5 µM [inhibitor, single point]"
CCCCC/C=C\C[C@H](O)/C=C/c1cccc(C[C@H](O)CCCCO)n1,,"inconclusive: 10.4 µM [inhibitor, single point]"
CN(CC(=O)Nc1ccc(F)cc1)C(=O)c1cc(-c2ccco2)nc2ccccc12,,"inconclusive: 9.28 µM [inhibitor, single point]"
Cc1cc(C)c2nc(NNC(=O)c3ccc(S(=O)(=O)N4CCc5ccccc5C4)cc3)sc2c1,,active: 3.7 µM
O=C1S/C(=C\c2ccc(N3CCOCC3)o2)C(=O)N1Cc1c(F)cccc1Cl,,active: 11.7 µM
COc1ccc(S(=O)(=O)N2CCCC2CNC(=O)c2cccc(OC)c2)cc1 (configuration not stated),,"inconclusive: 18.5 µM [inhibitor, single point]"
Cc1cccc(NC(=O)N2CCCC2C(=O)NCc2ccccc2)c1 (configuration not stated),,active: 9.28 µM
CC1=NOC(=O)/C1=C/c1ccc2c(c1)OCO2,,"inconclusive: 14.7 µM [inhibitor, partial curve, poor fit]"
CCOc1ccc(-c2c(C(=O)N/N=C/C3CC=CCC3)nnn2-c2nonc2N)cc1 (configuration not stated),,"inconclusive: 18.5 µM [inhibitor, single point]"
OC(CNc1ccccc1)COc1ccc(OCC(O)CNc2ccccc2)cc1 (configuration not stated),,"inconclusive: 18.5 µM [inhibitor, single point]"
CC(C)(C)S(=O)(=O)c1cnc2c(-c3ccc(F)cc3)cnn2c1N,inactive: -3.1%,
Cc1ccccc1NC(=O)CCCCCN1C(=O)[C@@H]2Cc3ccccc3CN2C1=O,,"inconclusive: 10.4 µM [inhibitor, single point]"
Cc1cc(C(=O)NNS(=O)(=O)c2cccc(Cl)c2)nn1C(C)(C)C,inactive: 23%,
COc1cc(/C=C(\C#N)c2ccccn2)ccc1OCC(=O)Nc1c(Cl)cccc1Cl,inactive: -12.6%,
CCOC(=O)C1CCN(S(=O)(=O)c2ccc3c(c2)CCN3C(C)=O)CC1,,"inconclusive: 13.1 µM [inhibitor, single point]"
CC(C)(C)c1ccc(C(=O)NCC(=O)OCc2ccc([N+](=O)[O-])cc2)cc1,,active: 0.522 µM
O=C1OCc2cccc3cccc1c23,inactive: -16.7%,
COc1ccc(N2CCN(C(=O)CCNC(=O)c3ccc(C(C)(C)C)cc3)CC2)cc1,,"inconclusive: 3.29 µM [inhibitor, single point]"
Cc1ccccc1NC(=O)CN1CCc2ccccc2C1,inactive: -11%,
Cc1ccc(C)c(NC(=O)CCN2CCN(C)CC2)c1,,"inconclusive: 20.8 µM [inhibitor, partial curve, poor fit]"
